The assay addresses GST-SAS-6(∆C) (C. elegans) (UniProt O62479). Put plainly: pull-down; GST fusion proteins immobilised on glutathione Sepharose 4B; precleared HEK293T lysate in P150 buffer, 4 °C, 4 h; immunoblot and CBB staining (Fig. 4C, 5G); only the target purified. In general terms: In western blotting, separated proteins are transferred to a membrane and probed.

By UniProt entry, the sequences of proteins in these tests, tags left out. Where a name states a change or a piece, a line headed by the entry shows the natural chain unless it says otherwise.
UniProt O62479: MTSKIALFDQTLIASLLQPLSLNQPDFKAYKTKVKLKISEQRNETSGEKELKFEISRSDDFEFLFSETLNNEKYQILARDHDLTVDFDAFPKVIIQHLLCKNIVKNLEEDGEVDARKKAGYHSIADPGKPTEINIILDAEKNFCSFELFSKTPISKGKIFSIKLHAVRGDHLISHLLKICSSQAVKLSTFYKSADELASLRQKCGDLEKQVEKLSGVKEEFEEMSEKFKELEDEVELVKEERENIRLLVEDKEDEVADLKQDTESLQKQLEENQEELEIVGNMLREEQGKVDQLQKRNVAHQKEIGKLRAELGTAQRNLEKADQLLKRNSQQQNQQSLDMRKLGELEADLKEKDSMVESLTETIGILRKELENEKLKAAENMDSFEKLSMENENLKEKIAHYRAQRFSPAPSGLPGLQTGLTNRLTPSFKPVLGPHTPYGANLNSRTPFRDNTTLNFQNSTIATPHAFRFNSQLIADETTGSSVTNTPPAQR

Results are given in words; binding and its absence hold for the method and conditions named. Binding seen in cells or lysates may run through a third protein. Tags and fused reporters may be left off the sequences shown.

B1: SAS-4-GFP (protein, UniProt P34402 1-808)
chain: MASDENIGADGEQKPSRPFLRKGQGTARFRMPRNNKTSAGAPPTSELSSASSPSINVPRFSLSNALPNSARTVDSGISNEDETRPPTTASLPMDQPSLSSSPENRLNPAPSVAEEHGHSGQHAEEEEDNDTDEVSAMPSFVPDEPSTLVNSDHELSDDALKYKNAAAEFKAFERRMDSMRSASTITTSLATPSSCAPSNSSEPPTRSTPIMNDLGVGPNNHNWPSSMQELSGISLETPQARPLGSNRINQLVRSEAQTGISLLQHHERPTVTAPLRRNDMMNSSRQNPQNGNVQDENRPEHVYDQPIHVPGSSLDRQKLEIEIRRHRNLNIQLRDTIAHLDYAEESVHTTKRQLEEKISEVNNFKKELIEEFKKCKKGVEEEFEKKFEKIKEDYDELYEKLKRDQRDLERDQKILKKGTGERNKEFTETIATLRDKLRASETKNAQYRQDIRVRDEKLKKKDEEIEKLQKDGNRLKSTLQTLEKRVKQLRTEKERDDKEKEMFAKVAMNRKTSNPVPPVLNQSVPISITSNGPSRHPSSSSLTTFRKPSTSNRERGVSWADEPNEQSLEAVPQEFLMMPVKEMPGKFGKCTIYRDSLGETSKVTDTIANGLLFEYSNGDLRWVNRQNAVNIYISAVDKTVRIDLPTYNISIIHTFQRQVEVLRPGNNITLISIKRREVRTDLIYQNGMYKTEIFNRDGRYVTKDFSNQEVSRKYNPGTHTYRDNQCRYVLVTDYNDFELVEPEFRLRWYQGDPTGLNNQYILKIIGRPECSEKTLRLEVNLSTCEGTLETAEMIGDKRRKTTLFQWKK
Regarding B1, the binding result is “no binding”.

For the origin of these results see publication PMC12238530, “Dynamic SAS-6 phosphorylation aids centrosome duplication and elimination in C. elegans oogenesis” (EMBO Reports, 2025).
